Values of other authors, collected in patent US7199132B2, “Tropane analogs and methods for inhibition of monoamine transport” (Organix, Inc., priority 2001, dated 2007).
For at least one compound, name, drawing or mass did not settle the structure.

Tested on: dopamine transporter
Settings: literature, compared with unnatural isomer; cited from earlier work

Q: Which “fold more potent binding at the dopamine transporter than (1S)-(+)-cocaine” value does the source give for `COC(=O)[C@H]1[C@@H](OC(=O)c2ccccc2)C[C@@H]2CC[C@H]1N2C` [(1R)-(−)-cocaine] here?
A: about 200 fold
